The assay addresses AtAPX1 protein, endogenous in Arabidopsis thaliana (Col-0) seedlings (Arabidopsis thaliana (endogenous in Col-0 seedlings)) (UniProt Q05431). Nature of the assay: native gel or EMSA; 10% native-PAGE of 20 μg total protein of Col-0 seedlings, western blot with anti-AtAPX1 antibody; control, heat stress (42°C, 1 h), salt stress (200 mM NaCl, 6 h) and recovery. In general terms: Mobility shift assays separate free from complexed probe on a gel.

The values that follow come from PMC8236860, “Regulation of Dual Activity of Ascorbate Peroxidase 1 From Arabidopsis thaliana by Conformational Changes and Posttranslational Modifications” (Frontiers in Plant Science, 2021).

No constants are given. Whether binding was seen depends on the method and setting. Some binding calls cover weakened binding; strength is not graded here.

B1: AtAPX1 protein, endogenous in Arabidopsis thaliana (Col-0) seedlings (enzyme, UniProt Q05431 1-250)
chain: MTKNYPTVSEDYKKAVEKCRRKLRGLIAEKNCAPIMVRLAWHSAGTFDCQSRTGGPFGTMRFDAEQAHGANSGIHIALRLLDPIREQFPTISFADFHQLAGVVAVEVTGGPDIPFHPGREDKPQPPPEGRLPDATKGCDHLRDVFAKQMGLSDKDIVALSGAHTLGRCHKDRSGFEGAWTSNPLIFDNSYFKELLSGEKEGLLQLVSDKALLDDPVFRPLVEKYAADEDAFFADYAEAHMKLSELGFADA
Regarding B1, the binding entry is “binds”.
